Our source for the binding values is article PMC6692315.

The target in experiment [1] is T1, C. elegans GEN-1-3XFLAG (C. elegans) (UniProt Q22418).
T1 sequence: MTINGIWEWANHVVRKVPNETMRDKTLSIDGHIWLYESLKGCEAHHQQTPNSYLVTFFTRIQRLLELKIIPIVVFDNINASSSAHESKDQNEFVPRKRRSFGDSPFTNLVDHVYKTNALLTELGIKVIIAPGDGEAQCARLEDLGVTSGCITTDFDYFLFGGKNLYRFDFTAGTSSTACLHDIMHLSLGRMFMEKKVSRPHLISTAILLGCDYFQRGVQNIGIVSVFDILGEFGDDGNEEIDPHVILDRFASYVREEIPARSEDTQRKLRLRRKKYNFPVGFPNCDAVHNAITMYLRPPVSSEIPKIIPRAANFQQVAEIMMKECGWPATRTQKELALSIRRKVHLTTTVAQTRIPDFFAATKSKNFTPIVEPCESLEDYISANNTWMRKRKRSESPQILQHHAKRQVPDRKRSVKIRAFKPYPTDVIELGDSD
The experiment in a line: co-IP; reciprocal: FLAG-tagged protein immunoprecipitated with magnetic FLAG-M2 beads (Sigma), 2 hours at 4 degrees Celsius, from transfected HEK-293T lysate; 0.5% CHAPS buffer (10 mM Tris/Cl pH 7.5, 150 mM NaCl, 0.5 mM EDTA); three washes; Western blot. (Immunoblotting shows a protein as a band on a membrane.)

The target in experiment [2] is T2, Human 3XFLAG:GEN1 (human) (UniProt Q17RS7).
T2 sequence: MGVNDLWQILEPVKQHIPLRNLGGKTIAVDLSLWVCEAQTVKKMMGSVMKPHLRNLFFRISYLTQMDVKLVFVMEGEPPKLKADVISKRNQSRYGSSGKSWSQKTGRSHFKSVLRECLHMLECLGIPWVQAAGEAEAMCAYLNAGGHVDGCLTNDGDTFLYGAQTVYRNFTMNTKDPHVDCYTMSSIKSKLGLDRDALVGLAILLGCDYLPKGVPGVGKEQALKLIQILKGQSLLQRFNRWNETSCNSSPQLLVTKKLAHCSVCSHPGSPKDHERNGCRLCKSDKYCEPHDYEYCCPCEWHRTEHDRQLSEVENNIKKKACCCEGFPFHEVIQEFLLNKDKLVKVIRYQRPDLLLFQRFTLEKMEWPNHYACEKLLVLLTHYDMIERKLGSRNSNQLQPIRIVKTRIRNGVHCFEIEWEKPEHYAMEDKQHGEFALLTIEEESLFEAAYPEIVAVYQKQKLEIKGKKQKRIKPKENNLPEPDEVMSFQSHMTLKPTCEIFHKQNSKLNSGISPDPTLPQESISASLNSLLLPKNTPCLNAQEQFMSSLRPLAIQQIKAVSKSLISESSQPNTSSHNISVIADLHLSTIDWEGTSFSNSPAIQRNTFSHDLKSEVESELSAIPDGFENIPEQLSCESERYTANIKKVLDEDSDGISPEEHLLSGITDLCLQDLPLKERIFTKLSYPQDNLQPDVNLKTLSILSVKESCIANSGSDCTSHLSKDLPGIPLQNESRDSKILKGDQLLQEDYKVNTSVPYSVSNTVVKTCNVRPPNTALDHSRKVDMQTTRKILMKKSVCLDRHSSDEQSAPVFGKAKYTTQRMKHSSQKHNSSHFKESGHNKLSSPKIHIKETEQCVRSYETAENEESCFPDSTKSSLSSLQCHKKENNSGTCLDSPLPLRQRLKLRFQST
The experiment is described as above.

For experiment [3], the target named is GFP-WDR23 isoform II (human) (human). The experiment in a line: co-IP; GFP-tagged protein immunoprecipitated with GFP trap magnetic agarose beads (Chromotek) from transfected HEK-293T lysate; 0.5% CHAPS buffer (10 mM Tris/Cl pH 7.5, 150 mM NaCl, 0.5 mM EDTA); Western blot.
The target in experiment [4] is GFP-WDR-23B (C. elegans WDR-23 isoform B) (C. elegans). The experiment is described as above.

No constants are given. Whether binding was seen depends on the method and setting. Binding seen in cells or lysates may run through a third protein. Binding can be weak; no strength is given. Sequences can lack the tags named with a protein.

Take “GFP-WDR-23B (C. elegans WDR-23 isoform B)”: the binding result in experiment [1] is given as “binds”.

Regarding GFP-WDR23 isoform II (human), in experiment [2], the binding result is given as “binds”.

B1: Human 3XFLAG:GEN1 (protein, UniProt Q17RS7 1-908)
chain: MGVNDLWQILEPVKQHIPLRNLGGKTIAVDLSLWVCEAQTVKKMMGSVMKPHLRNLFFRISYLTQMDVKLVFVMEGEPPKLKADVISKRNQSRYGSSGKSWSQKTGRSHFKSVLRECLHMLECLGIPWVQAAGEAEAMCAYLNAGGHVDGCLTNDGDTFLYGAQTVYRNFTMNTKDPHVDCYTMSSIKSKLGLDRDALVGLAILLGCDYLPKGVPGVGKEQALKLIQILKGQSLLQRFNRWNETSCNSSPQLLVTKKLAHCSVCSHPGSPKDHERNGCRLCKSDKYCEPHDYEYCCPCEWHRTEHDRQLSEVENNIKKKACCCEGFPFHEVIQEFLLNKDKLVKVIRYQRPDLLLFQRFTLEKMEWPNHYACEKLLVLLTHYDMIERKLGSRNSNQLQPIRIVKTRIRNGVHCFEIEWEKPEHYAMEDKQHGEFALLTIEEESLFEAAYPEIVAVYQKQKLEIKGKKQKRIKPKENNLPEPDEVMSFQSHMTLKPTCEIFHKQNSKLNSGISPDPTLPQESISASLNSLLLPKNTPCLNAQEQFMSSLRPLAIQQIKAVSKSLISESSQPNTSSHNISVIADLHLSTIDWEGTSFSNSPAIQRNTFSHDLKSEVESELSAIPDGFENIPEQLSCESERYTANIKKVLDEDSDGISPEEHLLSGITDLCLQDLPLKERIFTKLSYPQDNLQPDVNLKTLSILSVKESCIANSGSDCTSHLSKDLPGIPLQNESRDSKILKGDQLLQEDYKVNTSVPYSVSNTVVKTCNVRPPNTALDHSRKVDMQTTRKILMKKSVCLDRHSSDEQSAPVFGKAKYTTQRMKHSSQKHNSSHFKESGHNKLSSPKIHIKETEQCVRSYETAENEESCFPDSTKSSLSSLQCHKKENNSGTCLDSPLPLRQRLKLRFQST
Regarding B1, in experiment [3], the binding result is “binds”.

B2: C. elegans GEN-1-3XFLAG (protein, UniProt Q22418 1-434)
chain: MTINGIWEWANHVVRKVPNETMRDKTLSIDGHIWLYESLKGCEAHHQQTPNSYLVTFFTRIQRLLELKIIPIVVFDNINASSSAHESKDQNEFVPRKRRSFGDSPFTNLVDHVYKTNALLTELGIKVIIAPGDGEAQCARLEDLGVTSGCITTDFDYFLFGGKNLYRFDFTAGTSSTACLHDIMHLSLGRMFMEKKVSRPHLISTAILLGCDYFQRGVQNIGIVSVFDILGEFGDDGNEEIDPHVILDRFASYVREEIPARSEDTQRKLRLRRKKYNFPVGFPNCDAVHNAITMYLRPPVSSEIPKIIPRAANFQQVAEIMMKECGWPATRTQKELALSIRRKVHLTTTVAQTRIPDFFAATKSKNFTPIVEPCESLEDYISANNTWMRKRKRSESPQILQHHAKRQVPDRKRSVKIRAFKPYPTDVIELGDSD
Turning to B2, in experiment [4], the binding result was “binds”.
